Consider one substance from article PMC11844287.

Amino acid sequences for entries named in this document (tags omitted).
UniProt Q15717: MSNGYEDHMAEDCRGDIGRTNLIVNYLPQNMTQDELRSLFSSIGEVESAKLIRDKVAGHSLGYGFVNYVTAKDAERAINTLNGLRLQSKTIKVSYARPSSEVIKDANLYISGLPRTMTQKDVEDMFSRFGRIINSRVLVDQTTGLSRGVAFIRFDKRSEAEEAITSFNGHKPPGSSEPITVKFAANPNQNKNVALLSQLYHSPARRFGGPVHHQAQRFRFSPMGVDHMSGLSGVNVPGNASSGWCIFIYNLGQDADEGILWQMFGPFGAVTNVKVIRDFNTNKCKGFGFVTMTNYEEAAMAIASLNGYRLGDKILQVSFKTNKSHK

No constants are given. Whether binding was seen depends on the method and setting. In cells and extracts the contact can be indirect. A yes stands for co-enrichment or nearness to the bait. Other partners may have been found.

In the assay the target is T1, B cell receptor associated protein 31 (BAP31) (human (endogenous in HCC cells)) (UniProt P51572).
T1 sequence: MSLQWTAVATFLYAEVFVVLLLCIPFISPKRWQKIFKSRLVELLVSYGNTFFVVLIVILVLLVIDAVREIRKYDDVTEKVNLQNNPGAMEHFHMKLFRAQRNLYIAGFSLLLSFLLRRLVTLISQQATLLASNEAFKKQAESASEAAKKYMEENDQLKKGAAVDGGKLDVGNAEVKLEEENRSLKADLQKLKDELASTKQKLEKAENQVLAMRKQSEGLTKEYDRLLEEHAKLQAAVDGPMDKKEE
The assay can be described thus: affinity purification with mass spectrometry; cell lysate with anti-BAP31 mouse monoclonal antibody or mouse IgG isotype and Protein A/G PLUS-Agarose, overnight; differential Coomassie-stained gel spots analysed by LC-MS/MS.

In the case of “embryonic lethal abnormal vision like 1 (ELAVL1) (from UniProt Q15717 1-326)”, the binding entry was “binds”.
